For the experiment, the target named is T1, dystroglycan (UniProt Q62165).
T1 sequence: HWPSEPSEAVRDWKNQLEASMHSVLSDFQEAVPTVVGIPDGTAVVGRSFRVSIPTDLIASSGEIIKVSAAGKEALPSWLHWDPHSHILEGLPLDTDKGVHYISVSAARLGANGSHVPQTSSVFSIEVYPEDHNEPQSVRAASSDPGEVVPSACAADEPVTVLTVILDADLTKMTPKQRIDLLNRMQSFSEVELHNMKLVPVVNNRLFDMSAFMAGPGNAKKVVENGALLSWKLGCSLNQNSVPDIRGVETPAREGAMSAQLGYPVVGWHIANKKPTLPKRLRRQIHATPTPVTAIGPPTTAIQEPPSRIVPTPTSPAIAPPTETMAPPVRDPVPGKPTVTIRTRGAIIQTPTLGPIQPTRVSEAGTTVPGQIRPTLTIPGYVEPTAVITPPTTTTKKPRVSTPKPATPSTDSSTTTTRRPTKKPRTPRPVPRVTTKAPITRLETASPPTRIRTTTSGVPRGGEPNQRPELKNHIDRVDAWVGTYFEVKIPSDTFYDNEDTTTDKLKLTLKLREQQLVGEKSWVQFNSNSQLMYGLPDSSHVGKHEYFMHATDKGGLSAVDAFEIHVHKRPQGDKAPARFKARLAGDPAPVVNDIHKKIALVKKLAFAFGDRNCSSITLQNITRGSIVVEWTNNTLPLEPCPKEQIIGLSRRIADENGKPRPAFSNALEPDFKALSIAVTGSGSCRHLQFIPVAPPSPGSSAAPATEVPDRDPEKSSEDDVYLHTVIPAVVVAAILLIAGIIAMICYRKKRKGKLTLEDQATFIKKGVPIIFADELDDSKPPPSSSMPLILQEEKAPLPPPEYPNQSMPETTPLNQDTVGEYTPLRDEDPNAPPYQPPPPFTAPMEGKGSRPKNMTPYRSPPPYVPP
Briefly: western blot of laminin bound to cells. A general note: In western blotting, separated proteins are transferred to a membrane and probed.

By UniProt entry, the sequences of proteins in these tests, tags left out. Where a name states a change or a piece, a line headed by the entry shows the natural chain unless it says otherwise.
UniProt P19137: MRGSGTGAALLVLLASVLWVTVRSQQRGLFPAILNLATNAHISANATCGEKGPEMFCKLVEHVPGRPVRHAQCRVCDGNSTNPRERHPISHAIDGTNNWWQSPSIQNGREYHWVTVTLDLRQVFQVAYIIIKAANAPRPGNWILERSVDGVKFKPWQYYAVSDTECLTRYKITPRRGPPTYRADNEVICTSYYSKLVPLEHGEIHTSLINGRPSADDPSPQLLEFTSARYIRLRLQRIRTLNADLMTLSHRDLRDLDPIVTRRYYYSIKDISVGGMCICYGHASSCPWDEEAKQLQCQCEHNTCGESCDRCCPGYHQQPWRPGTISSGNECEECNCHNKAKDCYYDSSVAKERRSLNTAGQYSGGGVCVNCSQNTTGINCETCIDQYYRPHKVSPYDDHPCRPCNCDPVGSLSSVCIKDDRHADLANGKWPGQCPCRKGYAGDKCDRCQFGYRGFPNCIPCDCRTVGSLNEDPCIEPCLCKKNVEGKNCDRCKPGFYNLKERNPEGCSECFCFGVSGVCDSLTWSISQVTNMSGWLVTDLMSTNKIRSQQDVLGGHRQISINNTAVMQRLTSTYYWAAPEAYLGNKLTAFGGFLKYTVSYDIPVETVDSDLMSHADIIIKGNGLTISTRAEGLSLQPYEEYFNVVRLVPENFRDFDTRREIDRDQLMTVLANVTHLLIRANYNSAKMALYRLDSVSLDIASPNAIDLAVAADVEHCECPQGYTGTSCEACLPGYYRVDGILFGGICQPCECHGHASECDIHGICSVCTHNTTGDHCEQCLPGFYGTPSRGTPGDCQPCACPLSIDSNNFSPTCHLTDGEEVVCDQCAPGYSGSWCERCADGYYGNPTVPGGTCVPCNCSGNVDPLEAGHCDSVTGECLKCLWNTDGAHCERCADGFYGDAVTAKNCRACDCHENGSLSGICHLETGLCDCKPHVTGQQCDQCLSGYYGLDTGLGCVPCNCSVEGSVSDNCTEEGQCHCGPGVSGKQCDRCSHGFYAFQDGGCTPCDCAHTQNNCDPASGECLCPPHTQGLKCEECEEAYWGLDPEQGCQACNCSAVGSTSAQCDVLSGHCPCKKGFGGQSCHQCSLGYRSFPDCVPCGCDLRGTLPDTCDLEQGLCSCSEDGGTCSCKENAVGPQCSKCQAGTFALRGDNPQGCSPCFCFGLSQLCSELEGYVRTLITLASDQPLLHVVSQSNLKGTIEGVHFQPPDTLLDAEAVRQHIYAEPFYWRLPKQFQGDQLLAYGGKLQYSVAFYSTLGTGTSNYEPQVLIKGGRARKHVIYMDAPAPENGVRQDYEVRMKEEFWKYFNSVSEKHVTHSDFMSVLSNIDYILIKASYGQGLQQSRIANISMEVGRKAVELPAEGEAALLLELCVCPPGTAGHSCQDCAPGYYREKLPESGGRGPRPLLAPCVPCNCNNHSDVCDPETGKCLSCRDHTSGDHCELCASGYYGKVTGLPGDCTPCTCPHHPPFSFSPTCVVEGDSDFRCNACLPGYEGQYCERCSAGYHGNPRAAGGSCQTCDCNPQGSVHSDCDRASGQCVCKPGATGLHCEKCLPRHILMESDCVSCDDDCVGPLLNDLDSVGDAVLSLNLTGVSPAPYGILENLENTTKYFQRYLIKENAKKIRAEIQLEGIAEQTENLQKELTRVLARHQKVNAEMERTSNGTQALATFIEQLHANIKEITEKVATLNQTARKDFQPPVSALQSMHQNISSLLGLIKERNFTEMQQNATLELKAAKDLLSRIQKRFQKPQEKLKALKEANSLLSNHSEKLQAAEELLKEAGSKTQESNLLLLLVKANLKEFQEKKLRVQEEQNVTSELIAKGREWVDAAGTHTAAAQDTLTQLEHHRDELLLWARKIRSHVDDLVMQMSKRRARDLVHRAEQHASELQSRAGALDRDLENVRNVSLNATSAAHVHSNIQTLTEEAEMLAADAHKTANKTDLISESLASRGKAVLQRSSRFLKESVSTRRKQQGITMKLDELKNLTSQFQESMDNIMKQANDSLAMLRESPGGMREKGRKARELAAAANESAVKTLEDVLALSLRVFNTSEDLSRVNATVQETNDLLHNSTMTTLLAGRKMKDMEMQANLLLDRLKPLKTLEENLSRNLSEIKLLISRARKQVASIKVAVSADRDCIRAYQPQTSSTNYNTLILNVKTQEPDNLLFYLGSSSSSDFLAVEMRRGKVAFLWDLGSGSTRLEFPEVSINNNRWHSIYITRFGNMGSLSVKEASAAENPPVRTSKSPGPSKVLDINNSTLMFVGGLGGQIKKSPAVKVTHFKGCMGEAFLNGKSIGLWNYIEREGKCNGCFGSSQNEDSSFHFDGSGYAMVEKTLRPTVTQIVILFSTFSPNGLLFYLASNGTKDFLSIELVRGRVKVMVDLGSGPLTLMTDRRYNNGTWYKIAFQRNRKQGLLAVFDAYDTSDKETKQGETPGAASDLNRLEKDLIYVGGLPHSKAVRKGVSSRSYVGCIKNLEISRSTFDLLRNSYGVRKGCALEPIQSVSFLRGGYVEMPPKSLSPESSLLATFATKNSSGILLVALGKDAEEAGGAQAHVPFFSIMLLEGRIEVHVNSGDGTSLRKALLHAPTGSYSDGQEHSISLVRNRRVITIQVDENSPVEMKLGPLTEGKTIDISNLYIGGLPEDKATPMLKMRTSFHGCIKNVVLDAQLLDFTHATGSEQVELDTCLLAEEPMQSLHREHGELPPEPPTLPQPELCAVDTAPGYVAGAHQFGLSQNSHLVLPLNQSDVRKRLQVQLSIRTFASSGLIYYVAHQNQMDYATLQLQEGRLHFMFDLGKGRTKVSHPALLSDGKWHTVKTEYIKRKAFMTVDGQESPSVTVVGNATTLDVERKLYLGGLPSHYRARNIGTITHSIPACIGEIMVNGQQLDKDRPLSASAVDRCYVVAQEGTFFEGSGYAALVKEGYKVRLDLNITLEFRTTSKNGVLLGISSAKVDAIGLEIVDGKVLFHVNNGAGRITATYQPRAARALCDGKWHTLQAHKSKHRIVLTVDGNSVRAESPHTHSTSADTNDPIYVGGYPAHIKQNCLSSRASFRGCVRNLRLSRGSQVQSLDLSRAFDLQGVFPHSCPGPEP

No constants are given. Whether binding was seen depends on the method and setting. Some entries that bind do so weakly or less than the wild type.

For “laminin-111 (from UniProt P19137 25-3083; P02469 22-1786; P02468 34-1607) (complex)”, the binding result is recorded as “binds”.
